According to PubChem BioAssay AID1347075 (National Center for Advancing Translational Sciences (NCATS), 2019):
Among all 400,000 compounds or so, about 5,500 (1.4%) were called active. Inconclusive results, whose numbers are uncertain, are shown with a selection of clear calls. The call rests on the fitted dose curve; in most records, active means well fitted cell-killing curve with a large enough effect; inconclusive means small, poorly fitted or top-dose-only effect, or effect the other way; inactive means flat fitted curve, though single readings scatter. A potency beside an inconclusive call is a rough fit, not a confirmed value.

Test: qHTS assay for MDR1-selective chemotherapeutics: Primary screen using the parental adenocarcinoma cell KB-3-1; further: nearly all actives have a fitted effect of over 60% in size
Conditions: KB-3-1 viability, CellTiter-Glo ATP luminescence, 72 h; activity change, negative = cytotoxic: at 46.1 µM (top of the series)
How it was run: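 Using CellTiter-Glo luminescence, growth of non-resistant KB-3-1 adenocarcinoma cells is assessed 72 h after pin-tool compound addition at 37 °C. Normalized responses across the concentration series yield fitted curves.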
On the % scale 0 is the no-effect control and ±100 the full control effect; potency means the concentration at half of the fitted maximal effect.

Compound	Potency	activity change, negative = cytotoxic
CC(C)=CCC/C(C)=C/CNC(=O)C[C@H]1C[C@H](C(=O)N(C(C)C)C(C)C)[C@@]2(C)c3[nH]c4cc(-c5ccco5)ccc4c3CCN2C1=O	inconclusive: 29.1 µM [cytotoxic, single point]	–
COc1ccc(NC(=O)c2c(C)oc3ccc(O)c(CN4CCC(C)CC4)c23)cc1	–	inactive: -21%
CCN(CC)S(=O)(=O)c1ccc(F)c(C(=O)OC2CC(C)OC2=O)c1 (stereo not given)	inconclusive: 9.2 µM [rising, partial curve]	–
CN1CCN(c2nc(-c3ccccc3)nc(-c3ccccc3)c2C#N)CC1	–	inactive: -1.96%
COc1cc(C(=O)OCC(=O)Nc2sccc2C(N)=O)cc(OC)c1OC	active: 16.4 µM	–
Cc1cc(C(=O)CSc2nc(N)cc(=O)[nH]2)c(C)n1CCc1ccc(F)cc1	inconclusive: 13 µM [cytotoxic, single point]	–
COc1ccc(C(=O)Nc2ccc(-c3cc4ccccc4oc3=O)c(C)c2)cc1OC	inconclusive: 29.1 µM [cytotoxic, single point]	–
COCCSc1nnc(NC(=O)COc2ccc3c(c2)OCO3)s1	–	inactive: 0.112%
CN(C)c1ccc(CC2C(=O)Nc3ccccc32)cc1 (stereo not given)	–	inactive: 6.91%
CC(C)Cn1c(N)c(C(=O)COC(=O)c2ccc(Br)cc2)c(=O)n(C)c1=O	active: 14.6 µM	–
C/C(=C\c1ccc(Br)cc1)C(=O)c1c(C)cc(C)[nH]c1=O	inconclusive: 29.1 µM [cytotoxic, single point]	–
O=S(=O)(c1cc(F)ccc1F)N1CCN(c2ncnc3ccccc23)CC1	active: 5.17 µM	–
O=C(N/N=C/c1ccc(-c2ccccc2[N+](=O)[O-])o1)c1cncc(Br)c1	–	inactive: 11.7%
C[n+]1c(/C=C/c2ccc(O)cc2)ccc2ccccc21	inconclusive: 18.4 µM [cytotoxic, single point]	–
O=[N+]([O-])c1cc(C(F)(F)F)ccc1NCCNC(=S)Nc1ccc(Cl)cc1	–	inactive: 3.88%
CCOC(=O)c1ccc(NC(=O)Nc2nncs2)cc1	inconclusive: 0.461 µM [cytotoxic, full curve, poor fit]	–
COc1cc(-c2cnc3c(NC(C)=O)cc(-c4ccccc4CN(C)C)cn23)cc(OC)c1OC	inconclusive: 29.1 µM [cytotoxic, single point]	–
Cc1cccc(-n2c(C)nc3sccc3c2=O)c1	–	inactive: 13.3%
COc1cccc(C(=O)NCCS(=O)(=O)N2CCCCC2)c1	–	inactive: 1.91%
CCC(C)Nc1nc(-c2ccccn2)nc2ccccc12 (stereo not given)	active: 14.6 µM	–
CCOC(=O)c1c(C)[nH]c(C)c1S(=O)(=O)N1CCCC(C(=O)Nc2ccc(F)cc2F)C1 (stereo not given)	–	inactive: -3.71%
CCOC(=O)c1c(NC(=S)NC(=O)c2ccc(Cn3cc(Cl)cn3)o2)sc2c1CCCCC2	inconclusive: 29.1 µM [cytotoxic, single point]	–
COC(=O)C1=C(C)N(Cc2ccco2)C(=O)/C1=C\c1ccc([N+](=O)[O-])cc1	inconclusive: 20.6 µM [cytotoxic, partial curve, poor fit]	–

Compound	Potency	activity change, negative = cytotoxic
CN(C)c1ncnc2c1ncn2[C@H]1CN(Cc2ccc(Cl)cc2)C[C@@H](CO)O1	–	inactive: 0%
COc1ccc(NC(=O)C2(C)Cc3c(-c4ccc5c(c4)OCO5)ccnc3O2)cc1 (stereo not given)	active: 16.4 µM	–
CCOC(=O)[C@]12CCCC=C1N(Cc1ccco1)C(=O)[C@H](CC(=O)NCC13CC4CC(CC(C4)C1)C3)C2	–	inactive: -15.3%
Cc1cc(C(=O)N2CCC(C)(C(=O)NS(=O)(=O)C3CC3)C2)n(C(C)(C)C)n1 (stereo not given)	–	inactive: 13.9%
CCN(C(=O)CCN1C(=O)/C(=C/c2ccccc2)SC1=S)C1CCS(=O)(=O)C1 (stereo not given)	inconclusive: 23.1 µM [cytotoxic, single point]	–
CC(=O)c1ccc(NC(=O)c2cnn3ccccc23)cc1	inconclusive: 29.1 µM [cytotoxic, single point]	–
CN(C)c1ccc(CNS(=O)(=O)c2ccc3[nH]c4c(c3c2)CCCCC4)cc1	inconclusive: 11.6 µM [cytotoxic, partial curve, poor fit]	–
COC(=O)c1c(C)n(-c2ccc(C)cc2)c2ccc(O)cc12	inconclusive: 35.5 µM [cytotoxic, single point]	–
Cc1cccc(C)c1Nc1nnc(SCc2cc([N+](=O)[O-])cc3c2OCOC3)s1	inconclusive: 8.2 µM [cytotoxic, partial curve, poor fit]	–
CCc1ccc2[nH]c(=O)c(CN(Cc3ccco3)S(=O)(=O)c3ccc4c(c3)OCCO4)cc2c1	–	inactive: 14.5%
Cc1cccc(Nc2nnc(-c3ccc(N4CCOCC4)c([N+](=O)[O-])c3)c3ccccc23)c1	inconclusive: 18.4 µM [cytotoxic, single point]	–
COc1ccc(OC)c(/C=C/c2nc3ccccc3[nH]c2=O)c1	–	inactive: -3.2%
COc1cc(CC(=O)Nc2cccc(S(=O)(=O)N(C)c3ccccc3)c2)cc(OC)c1OC	inconclusive: 10.3 µM [cytotoxic, partial curve]	–
CC(NC(=O)c1ccc(Br)s1)c1ccncc1 (stereo not given)	–	inactive: -15.6%
CN(C)CCN(C(=O)c1ccco1)c1nc2cc3c(cc2s1)OCCO3	inconclusive: 7.31 µM [cytotoxic, partial curve, poor fit]	–
CCSc1nsc(NC(=O)Nc2ccccc2F)n1	inconclusive: 29.1 µM [cytotoxic, single point]	–
Fc1ccc(Cc2cn3cc(-c4ccccc4)nc3s2)cc1	inconclusive: 29.1 µM [cytotoxic, single point]	–
COc1ccc(CCNC(=O)CSc2nnnn2-c2cccc(C(C)=O)c2)cc1OC	inconclusive: 0.0231 µM [cytotoxic, full curve]	–
CC(C)C(N)c1csc(NC(=O)Nc2ccc(OC(F)(F)F)cc2)n1 (stereo not given)	inconclusive: 29.1 µM [cytotoxic, single point]	–
Cn1c(=N)c(S(=O)(=O)c2ccc(F)cc2)cc2c(=O)n3ccccc3nc21	–	inactive: 22.9%
COc1ccc(-c2nnc(N3CCCCC3)c3ccccc23)cc1	inconclusive: 23.1 µM [cytotoxic, single point]	–
CCN(CC)S(=O)(=O)c1cccc(-c2n[nH]c(=S)n2/N=C/c2ccc(C(=O)OC)cc2)c1	inconclusive: 25.9 µM [rising, single point]	–

Single values from the entries so far.
Potency with COc1cc(-c2cnc3c(NC(C)=O)cc(-c4ccccc4CN(C)C)cn23)cc(OC)c1OC reads inconclusive: 29.1 µM [cytotoxic, single point]
activity change, negative = cytotoxic with Cn1c(=N)c(S(=O)(=O)c2ccc(F)cc2)cc2c(=O)n3ccccc3nc21 reads inactive: 22.9%
